These are yes or no findings as the source states them, for the method shown.

Amino acid sequences for entries named in this document (tags omitted).
UniProt P16495: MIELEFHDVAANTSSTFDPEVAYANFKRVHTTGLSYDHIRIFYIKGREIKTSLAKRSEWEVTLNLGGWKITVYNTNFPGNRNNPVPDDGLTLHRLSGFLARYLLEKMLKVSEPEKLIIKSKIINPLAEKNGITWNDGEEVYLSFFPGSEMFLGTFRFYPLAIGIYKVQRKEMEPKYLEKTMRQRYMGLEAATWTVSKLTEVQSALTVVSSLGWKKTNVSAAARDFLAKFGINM

Assay [1] concerns the target Bunyamwera virus nucleocapsid (N) protein (Bunyamwera virus) (UniProt P16495). Put plainly: native MS; nano-ESI-MS of BUNV-N and SBV-N mixed 1:1 (molar) in 50 mM ammonium acetate pH 6.8, in the absence of RNA; both purified.
For assay [2] the target is unchanged. Put plainly: condition: only after removal of the bound endogenous RNA with high ionic strength buffers; 10 μM; native MS; nano-ESI-MS of high salt-treated (RNA-free) N protein, 10 μM, 50 mM ammonium acetate pH 6.8; both purified.

“Bunyamwera virus nucleocapsid (N) protein (from UniProt P16495 1-233)”: the binding result is given as “no binding (condition: in the absence of RNA)” in assay [1] and “no binding” in assay [2].

The values are drawn from PMC4377080, “Probing Bunyavirus N protein oligomerisation using mass spectrometry” (Rapid Communications in Mass Spectrometry, 2014).
